Counter-ions that a name gives are not always drawn. At least one structure is not confirmed: it was looked up by name or label, or the drawing left a doubt. Some results were stated once for a whole list of compounds, not compound by compound.
Key:
[1] = test system: SARS-CoV-2 (CANADA/VIDO01/2020 strain); type: cell-based; settings: for decrease of viral titers, drug added after infection: added 6 and 12 hours after infection, IWP01 1 μM, KYA1797K 1 μM, Pyrvinium 100 nM, 24 and 48 h later
[2] = test system: A549 cells; type: cell-based, human; settings: A549, 24- and 48-hours post-treatment
[3] = test system: SARS-CoV-2 (CANADA/VIDO01/2020 strain); type: cell-based

Molecule	SARS-CoV-2 replication, pre-treatment (in words) [1]	increase of peroxisome densities [2]	decrease of viral titers, drug added after infection [1]	decrease of genomic RNA levels, drug added after infection [3]
CCc1ccc(CCOc2ccc(CC3SC(=O)NC3=O)cc2)nc1 (centres unmarked) [Pioglitazone hydrochloride]	inhibit SARS-CoV-2 replication	–	–	–
iCRT-14	–	more than 50%	–	–
O=C([O-])CCN1C(=O)/C(=C/c2ccc(-c3ccc([N+](=O)[O-])cc3)o2)SC1=S.[K+] [KYA1797K]	–	more than 50%	77-94%	65-91%
Cc1cc(/C=C/c2ccc3cc(N(C)C)ccc3[n+]2C)c(C)n1-c1ccccc1 [Pyrvinium]	–	–	77-94%	65-91%
CN(CCOc1ccc(CC2SC(=O)NC2=O)cc1)c1ccccn1 (centres unmarked) [Rosiglitazone Maleate]	inhibit SARS-CoV-2 replication	–	–	–

— patent publication US20230293565A1, “USE OF WNT/BETA-CATENIN PATHWAY INHIBITORS TO BLOCK REPLICATION OF SARS-COV-2 AND OTHER PATHOGENIC VIRUSES” (THE GOVERNORS OF THE UNIVERSITY OF ALBERTA, priority 2020, published 2023)
